PubChem BioAssay AID504804, Drosophila RNAi Screening Center, 2011

Screen: 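Knock-downs shielding fly cells from apoptosis caused by DNA damage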 (primary screen)
Cell system: Drosophila Kc cells
Reagent: long dsRNA against Drosophila genes, 0.5 µg dsRNA per well
Timing: 96 h (48 h knock-down, then 48 h drug)
Challenge: doxorubicin 5 µg/ml for 48 h, added 48 h after dsRNA
Measured: 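Viability measured as cellular ATP by luminescence after 48 h knock-down then 48 h doxorubicin at 5 µg/ml; unnormalised plate counts for each replicate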
Reading the numbers: raw ATP luminescence: higher = more viable cells, protection from doxorubicin
Rule for the call: 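z-score of 2 or more over plate mean in both duplicates, retained only when retests and separate dsRNAs confirm the protection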
In all, the deposit lists about 19,000 reagents; this is a random part of those that have a named target and a result. Over the whole deposit, 47 (0.25%) got an active call. 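Signals are raw, not normalised; exact z-scores behind calls not deposited; actives needed confirmation, so some wells reaching 2 SD are inactive.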 Entries without a mark were called inactive. A plus sign joins genes that one reagent is predicted to hit.

gene | dsRNA | raw ATP luminescence, replicate 1 | raw ATP luminescence, replicate 2
CG30487 (GeneID 246646) | DRSC05377 | 75810 | 84870
Hpd (GeneID 40263) | DRSC11670 | 22790 | 23543
CG16868 (GeneID 37298) | DRSC06633 | 61600 | 70423
baz (GeneID 32703) | DRSC20309 | 4.10e5 | 3.31e5
Cad89D (GeneID 42006) | DRSC15022 | 79660 | 73320
CG9254 (GeneID 34773) | DRSC01969 | 14560 | 94493
CG14200 (GeneID 32939) | DRSC19555 | 98110 | 1.58e5
ps (GeneID 44258) | DRSC15149 | 53653 | 54283
ps (GeneID 44258) | DRSC15151 | 45213 | 38803
ps (GeneID 44258) | DRSC15152 | 28807 | 29393
ps (GeneID 44258) | DRSC16388 | 54003 | 57833
SIFa (GeneID 3346202) | DRSC04480 | 38793 | 41770
mu2 (GeneID 38257) | DRSC08726 | 53523 | 51323
nAChRalpha3 (GeneID 31767) | DRSC18800 | 36860 | 39810
mRpL20 (GeneID 39477) | DRSC09828 | 73740 | 70787
mura (GeneID 41145) | DRSC16483 | 34927 | 46400
mura (GeneID 41145) | DRSC16484 | 20817 | 26830
Smn (GeneID 39844) | DRSC10223 | 29460 | 23413
CG13605 (GeneID 42858) | DRSC14608 | 35570 | 41907
CG15118 (GeneID 37199) | DRSC06540 | 65760 | 74440
Nadk1b (GeneID 36507) | DRSC05432 | 88163 | 84817
Nadk1b (GeneID 36507) | DRSC06964 | 57773 | 71777
bgcn (GeneID 47873) | DRSC04062 | 64823 | 59030
bgcn (GeneID 47873) | DRSC04063 | 39023 | 45383
Etl1 (GeneID 34311) | DRSC02911 | 87480 | 64297
La (GeneID 35305) | DRSC03358 | 47973 | 66747
Pmvk (GeneID 35255) | DRSC02032 | 66190 | 53780
Xport-A + Xport-B | DRSC15586 | 36543 | 45770
meso18E (GeneID 53448) | DRSC20351 | 1.93e5 | 2.73e5
Clc (GeneID 40221) | DRSC11116 | 53377 | 31210
Fatp3 (GeneID 37887) | DRSC04366 | 43960 | 49173
PolA1 (GeneID 42553) | DRSC16640 | 52560 | 41183
CG8833 (GeneID 39535) | DRSC11050 | 28080 | 22973
CG32236 (GeneID 249170) | DRSC08117 | 97333 | 1.39e5
CG8036 (GeneID 41027) | DRSC16366 | 62767 | 60470
Su(z)12 (GeneID 48071) | DRSC11293 | 60413 | 62023
hob (GeneID 38395) | DRSC08426 | 45240 | 38693
CG6701 (GeneID 36550) | DRSC07007 | 78250 | 65157
Dic4 (GeneID 40039) | DRSC10317 | 62433 | 42100
babo (GeneID 35900) | DRSC07581 | 44633 | 64017
Ucp4C (GeneID 33832) | DRSC03132 | 37340 | 46457
CG18787 + CG18789 | DRSC02698 | 29063 | 37807
CG7544 (GeneID 36680) | DRSC07023 | 2.22e5 | 2.06e5
ppk30 (GeneID 43487) | DRSC15302 | 60530 | 50940
CG32407 (GeneID 38667) | DRSC09789 | 57483 | 76017
Hem (GeneID 40462) | DRSC11865 | 19870 | 22097
ncm (GeneID 35099) | DRSC02179 | 1.20e5 | 74340
CG11883 (GeneID 36121) | DRSC06094 | 53453 | 56107
SLC22A (GeneID 40437) | DRSC11826 | 65457 | 58987
SLC22A (GeneID 40437) | DRSC11827 | 70750 | 62010
Lrr47 (GeneID 34449) | DRSC03365 | 1.03e5 | 1.01e5
hd (GeneID 40642) | DRSC12316 | 65910 | 72687
CG42506 (retired record) + CG43759 | DRSC19543 | 3.65e5 | 3.21e5
CG17574 (GeneID 36415) | DRSC06681 | 2.52e5 | 2.49e5
ATPsynF (GeneID 37931) | DRSC04482 | 54267 | 56373
CG6761 (GeneID 39134) | DRSC10705 | 42403 | 33403
MESR6 (GeneID 40083) | DRSC10720 | 18020 | 21583
CG32982 (GeneID 34237) | DRSC01059 | 2.09e5 | 2.25e5
CG32982 (GeneID 34237) | DRSC02677 | 47750 | 57050
CG32982 (GeneID 34237) | DRSC03268 | 39667 | 62443
CG32982 (GeneID 34237) | DRSC03269 | 46313 | 73380
CG32284 (GeneID 317956) | DRSC08025 | 1.43e5 | 1.55e5
abo (GeneID 44793) | DRSC02926 | 47773 | 90987
dpr19 (GeneID 34408) | DRSC02237 | 48373 | 58103
CG11131 (GeneID 40511) | DRSC11636 | 71133 | 75143
idc (GeneID 42393) | DRSC15680 | 63670 | 57593
mbt (GeneID 32631) | DRSC20348 | 1.99e5 | 1.59e5
SF2 (GeneID 53443) | DRSC16845 | 56640 | 52400
Xxylt (GeneID 37833) | DRSC04107 | 61627 | 70583
CG5892 (GeneID 42522) | DRSC15910 | 14530 | 28940
Cat (GeneID 40048) | DRSC11110 | 46983 | 31083
Sym (GeneID 40709) | DRSC12301 | 68120 | 26107
CG1927 (GeneID 38262) | DRSC08146 | 50070 | 54763
Nup214 (GeneID 46091) | DRSC04421 | 74890 | 74180
ImpE2 (GeneID 38432) | DRSC08665 | 33953 | 26887
CR42545 (GeneID 8674105) | DRSC03709 | 30607 | 31837
Ncoa6 (GeneID 33761) | DRSC02353 | 16153 | 12367
CG5386 (GeneID 42613) | DRSC15788 | 37180 | 36620
CG6071 (GeneID 39308) | DRSC10579 | 70260 | 61913
PolI (GeneID 40965) | DRSC16267 | 63023 | 65307
Shc (GeneID 44052) | DRSC11284 | 95073 | 70123
CG14300 (GeneID 3346166) | DRSC14779 | 52620 | 72050
CG15136 (GeneID 35033) | DRSC02436 | 66480 | 76367
CG11672 (GeneID 40977) | DRSC14344 | 66333 | 54790
